# Measurements taken from publication PMC3640950.
# Amino acid sequences for entries named in this document (tags omitted). A change or cut given only in a name is not applied to a line headed by its entry.
# UniProt Q9H0K1: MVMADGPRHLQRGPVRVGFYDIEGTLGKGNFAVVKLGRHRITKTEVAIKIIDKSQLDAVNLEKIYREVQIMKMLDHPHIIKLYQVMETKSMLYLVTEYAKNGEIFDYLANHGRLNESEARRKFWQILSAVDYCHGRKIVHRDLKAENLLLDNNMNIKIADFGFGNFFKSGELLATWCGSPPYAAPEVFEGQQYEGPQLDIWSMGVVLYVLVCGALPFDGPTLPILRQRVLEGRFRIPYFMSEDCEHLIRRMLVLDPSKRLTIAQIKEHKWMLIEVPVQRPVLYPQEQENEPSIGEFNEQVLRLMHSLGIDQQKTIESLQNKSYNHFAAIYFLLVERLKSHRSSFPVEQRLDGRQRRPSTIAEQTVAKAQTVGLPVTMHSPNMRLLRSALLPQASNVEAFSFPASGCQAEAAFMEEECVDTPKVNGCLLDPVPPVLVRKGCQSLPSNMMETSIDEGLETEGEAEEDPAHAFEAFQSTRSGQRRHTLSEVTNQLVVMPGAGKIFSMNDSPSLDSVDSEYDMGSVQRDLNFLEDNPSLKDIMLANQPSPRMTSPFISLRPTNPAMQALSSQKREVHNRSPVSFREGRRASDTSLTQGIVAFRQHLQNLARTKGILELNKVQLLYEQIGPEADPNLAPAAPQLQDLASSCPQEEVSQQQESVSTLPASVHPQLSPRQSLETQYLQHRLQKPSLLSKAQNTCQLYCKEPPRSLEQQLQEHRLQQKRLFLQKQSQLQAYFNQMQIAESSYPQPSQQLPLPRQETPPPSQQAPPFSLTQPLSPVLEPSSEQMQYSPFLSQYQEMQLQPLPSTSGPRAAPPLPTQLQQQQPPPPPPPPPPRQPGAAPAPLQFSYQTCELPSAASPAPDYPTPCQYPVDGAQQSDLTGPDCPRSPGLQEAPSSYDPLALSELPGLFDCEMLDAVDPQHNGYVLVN
# UniProt P57059: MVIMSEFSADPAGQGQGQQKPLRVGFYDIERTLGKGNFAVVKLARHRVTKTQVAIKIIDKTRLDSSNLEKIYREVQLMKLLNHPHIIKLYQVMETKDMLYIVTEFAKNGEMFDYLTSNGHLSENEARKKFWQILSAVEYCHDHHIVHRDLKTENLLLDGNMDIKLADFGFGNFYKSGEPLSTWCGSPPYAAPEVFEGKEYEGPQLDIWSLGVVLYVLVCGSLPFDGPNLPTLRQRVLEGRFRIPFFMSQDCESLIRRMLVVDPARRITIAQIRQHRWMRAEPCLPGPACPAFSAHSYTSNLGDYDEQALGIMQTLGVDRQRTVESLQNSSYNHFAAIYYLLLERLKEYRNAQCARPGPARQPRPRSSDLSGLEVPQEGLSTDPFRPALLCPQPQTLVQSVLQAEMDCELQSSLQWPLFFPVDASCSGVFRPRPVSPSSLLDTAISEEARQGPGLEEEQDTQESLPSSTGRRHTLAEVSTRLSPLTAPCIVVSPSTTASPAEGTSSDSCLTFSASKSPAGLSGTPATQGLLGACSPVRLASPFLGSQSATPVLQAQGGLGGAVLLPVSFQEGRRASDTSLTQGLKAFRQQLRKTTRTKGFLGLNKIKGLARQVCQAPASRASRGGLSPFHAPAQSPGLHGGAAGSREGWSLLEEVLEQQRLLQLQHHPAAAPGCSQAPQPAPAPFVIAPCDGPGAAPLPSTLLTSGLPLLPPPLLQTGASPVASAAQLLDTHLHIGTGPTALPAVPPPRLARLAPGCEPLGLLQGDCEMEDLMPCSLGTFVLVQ
# Results are given in words; binding and its absence hold for the method and conditions named. Binding seen in cells or lysates may run through a third protein. Some results given as binding are weak or reduced against the parent protein; the word gives no strength. For some of these results: Sequences can lack the tags named with a protein.
# Legend:
# [1] = biological target: GST-SIK2 (pEBG-SIK2) (UniProt Q9H0K1); assay: pull-down; HEK293T cells co-transfected with pEBG-SIK2 or pEBG-SIK3 and pCAG-Tax-V5; GST-SIK2/3 pulled down from the cleared lysate with glutathione Sepharose 4B, 2 hr at 4°C; blot with anti-Tax
# [2] = biological target: T1, Flag-LKB1 wild type (pCMV-Tag2-LKB1) (UniProt Q15831); assay: co-IP; HEK293T cells co-transfected with pCMV-Tag2-LKB1 or pCMV-Tag2-SIK1 and pCAG-Tax-V5; Flag-LKB1/SIK1 precipitated with mouse anti-Flag (M2) and protein G agarose, 2 hr at 4°C, buffer 20 mM Tris-HCl pH 7.5, 100 mM NaCl, 0.5 mM EDTA, 0.5% NP-40; blot with anti-Tax
# T1 sequence: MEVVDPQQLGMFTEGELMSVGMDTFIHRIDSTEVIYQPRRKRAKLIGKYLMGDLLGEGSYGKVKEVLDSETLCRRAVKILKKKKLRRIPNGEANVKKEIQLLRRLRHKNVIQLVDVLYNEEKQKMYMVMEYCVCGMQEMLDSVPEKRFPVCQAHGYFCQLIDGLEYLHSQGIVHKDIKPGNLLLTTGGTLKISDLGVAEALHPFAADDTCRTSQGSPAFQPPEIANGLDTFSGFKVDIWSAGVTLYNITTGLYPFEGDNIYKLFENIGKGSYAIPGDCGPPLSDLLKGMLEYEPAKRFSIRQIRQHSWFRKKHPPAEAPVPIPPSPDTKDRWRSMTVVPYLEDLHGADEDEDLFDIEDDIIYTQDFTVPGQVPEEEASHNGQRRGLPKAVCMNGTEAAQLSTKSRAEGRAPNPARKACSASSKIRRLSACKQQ
# [3] = biological target: Flag-SIK1 wild type (pCMV-Tag2-SIK1) (UniProt P57059); assay: as above
# [4] = biological target: Flag-SIK1-K56M (kinase-defective mutant, pCMV-Tag2-SIK1-K56M) (UniProt P57059); assay: as above
substance,measurement,setting,value
Tax-V5 (HTLV-1 Tax oncoprotein expressed from pCAG-Tax-V5) (from UniProt P03409 1-353),binding,[1],binds
same,binding,[2],binds
same,binding,[3],binds
same,binding,[4],no binding
